Literature values, collected in US8137993B2, “Methods of identifying responders to dopamine agonist therapy and treating metabolic conditions thereof” (VeroScience LLC, priority 2004, dated 2012).
For at least one compound, name, drawing or mass did not settle the structure.

Test system: Type 2 diabetics

CC(C)C[C@H]1C(=O)N2CCC[C@H]2[C@]2(O)O[C@](NC(=O)[C@@H]3C=C4c5cccc6[nH]c(Br)c(c56)C[C@H]4N(C)C3)(C(C)C)C(=O)N12 [bromocriptine]
average percent HbA1c change among non-responders (24 week treatment period, non-responders): approximately +0.4%
average percent HbA1c reduction among responders (24 week treatment period, responders = HbA1c reduced by 0.3 within 8 weeks from initiation of treatment): −0.63%
non-responders as share of the treated population (remaining treated population (non-responders)): 35%
responders as share of the total treated population (responders = HbA1c reduced by 0.3 within 8 weeks from initiation of treatment): 65%
